Reference: patent US20260258116A1
These are yes or no findings as the source states them, for the method shown. Some results given as binding are weak or reduced against the parent protein; the word gives no strength.

Sequences of proteins named here, by UniProt entry; tags and fusion partners are left off. Residues count along the entry.
UniProt P14778, residues 18-332: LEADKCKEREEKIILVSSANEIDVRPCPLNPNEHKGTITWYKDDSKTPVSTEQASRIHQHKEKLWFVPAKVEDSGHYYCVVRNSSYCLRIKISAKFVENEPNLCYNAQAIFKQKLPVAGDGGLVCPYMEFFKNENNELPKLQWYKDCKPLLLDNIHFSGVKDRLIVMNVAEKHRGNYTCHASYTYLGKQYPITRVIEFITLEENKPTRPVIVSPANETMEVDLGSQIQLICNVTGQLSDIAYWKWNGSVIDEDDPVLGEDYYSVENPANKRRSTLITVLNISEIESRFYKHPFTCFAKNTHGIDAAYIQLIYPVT

Assays:
human IL1R1 (human) [1] = biological target: human IL1R1 (human) (UniProt P14778); test: figure legend; ELISA, IL1R1 coated, anti-Avi Tag detection
human IL1R1 (human) [2] = biological target: human IL1R1 (human) (UniProt P14778); test: ELISA, IL1R1 coated, anti-Avi Tag detection

binding (human IL1R1 (human) [1]): binds
binding (human IL1R1 (human) [2]): binds
B1: G2-VHH (also referred to as VHH-G2) (VHH)
VHH: QVQLVESGGGLVQPGGSLRLSCAASGFTMGDYAIGWFRQVPGKEREGLSYSTKNGIKAYADSVRDRFTISRENAKNTVYLQMNSLKPEDTAVYYCAASTRFGGLLVSRYDYWGQGTQVTVSS
